Laboratory results as given in the supplement of paper PMC3334620.
In all, about 33,000 sequences were measured (“E-score (-0.5 to 0.5)”: median about -0.0059, highest 2% from about 0.26 on). This is one part of the list.

These sequences were tested against T1, Cin5 (UniProt P40917) (assay: PBM E-score (8-mer binding enrichment) (E-score (-0.5 to 0.5)); higher = stronger / more preferred TF binding). Conditions: protein concentration: 100 nM; construct: GST-full length.
T1 sequence: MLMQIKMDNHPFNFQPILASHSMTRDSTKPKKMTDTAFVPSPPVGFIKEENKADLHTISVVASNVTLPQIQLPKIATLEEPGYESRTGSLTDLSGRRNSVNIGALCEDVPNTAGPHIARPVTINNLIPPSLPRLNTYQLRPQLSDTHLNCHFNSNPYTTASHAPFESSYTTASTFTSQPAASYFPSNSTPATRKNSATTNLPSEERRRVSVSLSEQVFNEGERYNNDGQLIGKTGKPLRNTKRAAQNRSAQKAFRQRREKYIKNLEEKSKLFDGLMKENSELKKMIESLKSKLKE
How it was run: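 Universal all-10-mer Agilent arrays, double-stranded by primer extension on fresh or once-stripped slides, were probed with about 100-200 nM GST-tagged yeast transcription factors made by PURExpress. Fluorescent anti-GST detected bound protein, and masliner normalised the scans. E-scores from the Universal PBM Analysis Suite were given to each ungapped eight-base word pooled with its reverse complement.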

Sequence	PBM E-score
ACTCCACG	-0.0993
CTGAGTAA	0.188
AAATGAAG	0.153
ACTGCTGA	-0.0132
AACGCGCA	0.0734
ACAAACCA	-0.0109
CCTCTAGA	-0.135
GCGAGTAC	0.158
ATACTTGC	0.0833
CCTTGTCC	-0.0761
TACGTGGA	0.121
AGTCAGCA	0.0094
ACAGGGGA	-0.146
CGTTGAAG	-0.121
AGCTTAAT	0.21
CTCTGCTC	-0.113
GACTGGGC	-0.323
ATACGAGA	-0.126
ACGTGGGG	-0.165
GAATACTC	-0.00677
CGATCTGC	-0.0483
GCGAGGTA	-0.122
GTCGATGA	0.0342
CCGAGGCC	-0.207
CAACTGTC	-0.102

Sequence	PBM E-score
ATACTTCC	0.0394
CTCCCGGC	-0.106
CGTTGTCA	0.112
AAACGTCT	-0.0492
AAGTGGAT	-0.146
AGGTCAGA	-0.163
ATGCTCGG	0.0708
TTAGTCAA	0.0995
GATCTGTA	0.121
AGGTCATG	-0.054
GTATCTGA	0.0655
CCGTGACA	0.0327
AGGCTTTG	-0.135
CGGGTGGC	-0.217
CAAGTGAA	-0.0255
TGAACGAA	-0.0612
ATACACCC	0.0362
ACTCACCC	0.00023
ACTCCGCC	0.0503
TAGAACGA	-0.0153
AATATGTA	0.196
AGGTTCGC	-0.276
ACGACAGG	0.0411
AAGAGAAG	-0.0313
AGCGTTGC	-0.0908

Sequence	PBM E-score
TAATCGCA	0.294
AGTCAGAG	-0.0527
AGTGTTGC	0.132
CAACGGCG	-0.0924
GGAGTCCA	-0.211
TAATTAAA	0.068
ATCATTGG	0.13
CATCCCTC	-0.00976
TAAATGCA	0.175
AGGTTCCA	-0.0989
AATGCGGT	-0.0647
CCTCCAGA	-0.0797
AGGCAGAT	0.0693
ACTCGGGG	-0.103
ACATCGCT	0.0356
CGGCAAAC	0.0939
GGACTGTA	-0.109
GCTCAGGA	-0.136
AAAGTGTT	0.149
ACGAAGTA	0.0511
CGTTTTAG	-0.206
GGACCACA	-0.0168
CAGCTTCG	0.00093
GCGAGTTA	0.166
GACTTCGA	-0.0998

Laid out differently: results already given.
Sequence,PBM E-score
AGGCTTTG,-0.135
CGGGTGGC,-0.217
CAAGTGAA,-0.0255
TGAACGAA,-0.0612
ATACACCC,0.0362

(cont.)

Sequence	PBM E-score
CGCAACCG	-0.153
GATTTAGA	-0.0705
AGTCCGCC	-0.123
CACGTACA	-0.141
ATAGTAAG	0.236
CGGGGTGA	0.134
AGCGAGGC	-0.157
AAGCGTAC	-0.0414
ATAGGATG	0.209
AATCTATA	0.163
CATTGGAC	-0.083
AGCCTACG	0.0355
CGTAAATC	0.0715
TGAGGCCA	0.0508
CGAGGTTA	0.0708
CCTTTTTA	-0.00478
ACTGTGCA	-0.123
AAAACCTC	0.145
GAGGGAGA	-0.17
CGCCCTGC	-0.0782
ATTAAGCA	0.112
CAGTGCTC	-0.121
TCGGTGAA	-0.0666
AAGCTTAC	0.282
TAACATGA	0.071

Sequence	PBM E-score
CGGTTCGC	-0.0697
AAGGCGTA	-0.133
CCAAATGG	-0.0984
CGAGCAGC	0.0622
GAGGATCA	-0.0895
GTGGTTGA	-0.0708
TGCGGCCA	-0.148
AGATGGAA	0.167
AATTTAGT	0.284
GCTTCGAC	-0.146
ACGTAGGG	-0.142
ATAGGCTG	-0.0375
AGCCTTGC	-0.0563
ACTATGTC	-0.0438
AGTCAGGG	-0.227
CCTGAGGA	0.0203
CAAGTGGA	0.0672
AAACTTTA	0.151
AATCTGGT	0.22
CACAACAA	-0.0522
CGTACTAC	-0.00888
AGCCGGAT	-0.0226
GAAACTTA	0.214
CGTAGAAA	-0.0929
AGGAAGCA	-0.243

Sequence	PBM E-score
AGATTCAT	-0.0102
AGTTTTTA	-0.12
CAGTCGCC	-0.129
TGAACCCA	0.0303
AATAGGTG	-0.0223
ACCCCTAC	0.00351
CTTGGACA	-0.116
AAAAACAT	0.111
AGCCCTAT	-0.146
CTTACACC	-0.0748
TAGTCCGA	-0.0594
GCTCAGCA	-0.0162
GACCAAAC	-0.173
AAGTATTA	0.0531
ACACCCGC	0.127
AGAGGAGC	-0.233
AACAGTTA	0.099
CCGCGAAC	0.0232
AATCCATG	0.0693
ACGCGCCG	-0.0779
AAATTCAT	0.0992
ATCGTCCG	0.0229
ACTTCATG	0.0471
CACCCGTA	-0.0406
ACAGCCAC	0.0393

Sequence	PBM E-score
CACCCTGG	-0.195
CCTCATGC	-0.137
AGGGCACT	-0.249
GCTACGCC	-0.319
GAGGGAAA	-0.152
ATCTCTTG	-0.0398
CTCCCATA	-0.0777
ATTGCAGA	0.00865
CCGTAACC	0.0324
CCCAGACG	-0.0437
ACTCTGAG	-0.0227
CCCCTTTA	-0.195
CGGTCGTC	-0.131
ACCATGGT	-0.0835
CACGGGAA	-0.0678
CCCCCACC	-0.454
ATACTCTC	0.0894
GAGAACCA	-0.0076
ATACCCCC	-0.346
CGGGAAAC	0.0271
AGGCTCAG	-0.221
CCTAGGTA	-0.0942

An excerpt of these results, comma-delimited:
Sequence,PBM E-score
ATGCTCGG,0.0708
ACTCACCC,0.00023
GCGAGTTA,0.166
TGAACCCA,0.0303
